This note sets out measurements from the supplement of paper PMC8728848.

Holding throughout (experiment): glycan array binding signal (z-score within array); higher = stronger binding
Holding throughout (conditions): glycan notation: IUPAC condensed, linker removed

For experiment [1], the target named is Fuc(a1-2)Gal6S(b1-3)GlcNAc6S. The procedure, abridged: (§1)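 Glycan array data were curated from 3228 arrays in the Consortium for Functional Glycomics database and kept only where the protein sequence was available. Glycan names were converted to IUPAC-condensed notation, and columns mapping to the same glycan were averaged. The binding signal is a within-array Z-score, averaged across arrays of the same protein sequence at different concentrations or buffers and across linkers. Negative Z-scores can be read as non-binding.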

For experiment [2], the target named is Fuc(a1-2)Gal6S(b1-4)Glc. In outline:
as §1

Experiment [3] concerns the target Fuc(a1-2)Gal6S(b1-4)Glc6S. The procedure, abridged:
as §1

The target of experiment [4] is Fuc(a1-2)[Gal(a1-3)]Gal. In outline: as §1
The target of experiment [5] is Fuc(a1-2)[Gal(a1-3)]Gal(b1-3)GalNAc. In outline: as §1
Experiment [6] deals with Fuc(a1-2)[Gal(a1-3)]Gal(b1-3)GalNAc(b1-3)Gal(a1-4)Gal(b1-4)Glc. The procedure, abridged:
as §1

Experiment [7] has as its target Fuc(a1-2)[Gal(a1-3)]Gal(b1-3)GlcNAc. The procedure, abridged: as §1
For experiment [8], the target named is Fuc(a1-2)[Gal(a1-3)]Gal(b1-3)GlcNAc(b1-2)Man(a1-3)[Fuc(a1-2)[Gal(a1-3)]Gal(b1-3)GlcNAc(b1-2)Man(a1-6)]Man(b1-4)GlcNAc(b1-4)GlcNAc. The procedure, abridged: as §1
For experiment [9], the target named is Fuc(a1-2)[Gal(a1-3)]Gal(b1-3)GlcNAc(b1-2)Man(a1-3)[Fuc(a1-2)[Gal(a1-3)]Gal(b1-3)GlcNAc(b1-2)Man(a1-6)]Man(b1-4)GlcNAc(b1-4)[Fuc(a1-6)]GlcNAc. The procedure, abridged: as §1
The target of experiment [10] is Fuc(a1-2)[Gal(a1-3)]Gal(b1-3)GlcNAc(b1-3)GalNAc. In outline:
as §1

Experiment [11] concerns the target Fuc(a1-2)[Gal(a1-3)]Gal(b1-3)GlcNAc(b1-6)GalNAc. The procedure, abridged: as §1
In experiment [12] the target is Fuc(a1-2)[Gal(a1-3)]Gal(b1-4)Glc. The procedure, abridged: as §1
Experiment [13] has as its target Fuc(a1-2)[Gal(a1-3)]Gal(b1-4)GlcNAc. In outline: as §1
The target of experiment [14] is Fuc(a1-2)[Gal(a1-3)]Gal(b1-4)GlcNAc(b1-2)Man. The procedure, abridged:
as §1

The target of experiment [15] is Fuc(a1-2)[Gal(a1-3)]Gal(b1-4)GlcNAc(b1-2)Man(a1-3)[Fuc(a1-2)[Gal(a1-3)]Gal(b1-4)GlcNAc(b1-2)Man(a1-6)]Man(b1-4)GlcNAc(b1-4)GlcNAc. In outline: as §1
Experiment [16] deals with Fuc(a1-2)[Gal(a1-3)]Gal(b1-4)GlcNAc(b1-2)Man(a1-3)[Fuc(a1-2)[Gal(a1-3)]Gal(b1-4)GlcNAc(b1-2)Man(a1-6)]Man(b1-4)GlcNAc(b1-4)[Fuc(a1-6)]GlcNAc. The procedure, abridged:
as §1

The target in experiment [17] is Fuc(a1-2)[Gal(a1-3)]Gal(b1-4)GlcNAc(b1-3)GalNAc. In outline:
as §1

Experiment [18] deals with Fuc(a1-2)[Gal(a1-3)]Gal(b1-4)GlcNAc(b1-3)[Fuc(a1-2)[Gal(a1-3)]Gal(b1-4)GlcNAc(b1-6)]GalNAc. In outline: as §1
Experiment [19] addresses Fuc(a1-2)[Gal(a1-3)]Gal(b1-4)GlcNAc(b1-6)GalNAc. In outline: as §1
Experiment [20] concerns the target Fuc(a1-2)[Gal(a1-3)]Gal(b1-4)[Fuc(a1-3)]Glc. The procedure, abridged: as §1
Experiment [21] concerns the target Fuc(a1-2)[Gal(a1-3)]Gal(b1-4)[Fuc(a1-3)]GlcNAc. In outline:
as §1

The target in experiment [22] is Fuc(a1-2)[Gal(a1-3)]Gal(b1-4)[Fuc(a1-3)]GlcNAc(b1-3)GalNAc. The procedure, abridged:
as §1

This is one part of the list.

B1: GS7807Q-bfa-507-19-507 (Bacteroides fragilis) (protein)
chain: ASCNKFDDLNTNPDAATKVTAPMLATKLILNITQQGSAKNFVYHSMLSKQIAWSENASDEQYNLFGRTDFDGYTILTNCQKMVDAANEGDKDSYAALAKFMKAYKLFYKSLEVGDIPYSDALKGEEGVQKPKYDTQKEVMRQVLEDLEEAYTLFSSGSDFDGDPIFGGDTENWKKTVVAFELKVLTHLCKKDTDADLKVKERFARLVSSGSLMTSNADNFQLVYSNKAGQLYPFYYTQNKHSDYLMMSSVIIDNLKKFNDYRMFYYASPAKAQTDKGIKDSEWDAYLSIDPSDSYSNISVLYGKGEFCLANLRYTRVPEGEPLMRLSYAEQNFILAEGAVRGWISEDASTYYKKGIEASMNFIADNTPDKEEYTHGRTITQEYIQEYLAQPVIQLSGDKEKDLEMILLQRYLASFLQHPYDAYYDYRRTGYPVLPINPSTNLNTEKNKIPTRWMYPEAEFSYNPDNANEAVQRQYNGSDDVNKLMWILQ
As for B1, the “glycan array binding signal (z-score)” value in experiment [1] was 1.53; in [2], 0.351; in experiment [3], 0.919; in experiment [4], -0.796; in experiment [5], -0.033; in experiment [6], 0.019. Further, the “glycan array binding signal (z-score)” value is 0.16 in [7]; -0.449 in [8]; 1.31 in [9]; -0.929 in experiment [10]; -1.04 in experiment [11]; 0.208 in experiment [12]. Besides, the “glycan array binding signal (z-score)” value was -0.556 in experiment [13]; -0.226 in [14]; 1.09 in experiment [15]; 0.949 in [16]; -1.24 in experiment [17]; -0.376 in experiment [18]. The “glycan array binding signal (z-score)” value is -0.854 in experiment [19], 1.42 in experiment [20], -0.893 in experiment [21] and 0.188 in [22].
